# PubChem BioAssay AID2073 (Sanford-Burnham Center for Chemical Genomics, 2009)
# Amino acid sequences for entries named in this document (tags omitted).
# UniProt Q00975, whole entry, looked up: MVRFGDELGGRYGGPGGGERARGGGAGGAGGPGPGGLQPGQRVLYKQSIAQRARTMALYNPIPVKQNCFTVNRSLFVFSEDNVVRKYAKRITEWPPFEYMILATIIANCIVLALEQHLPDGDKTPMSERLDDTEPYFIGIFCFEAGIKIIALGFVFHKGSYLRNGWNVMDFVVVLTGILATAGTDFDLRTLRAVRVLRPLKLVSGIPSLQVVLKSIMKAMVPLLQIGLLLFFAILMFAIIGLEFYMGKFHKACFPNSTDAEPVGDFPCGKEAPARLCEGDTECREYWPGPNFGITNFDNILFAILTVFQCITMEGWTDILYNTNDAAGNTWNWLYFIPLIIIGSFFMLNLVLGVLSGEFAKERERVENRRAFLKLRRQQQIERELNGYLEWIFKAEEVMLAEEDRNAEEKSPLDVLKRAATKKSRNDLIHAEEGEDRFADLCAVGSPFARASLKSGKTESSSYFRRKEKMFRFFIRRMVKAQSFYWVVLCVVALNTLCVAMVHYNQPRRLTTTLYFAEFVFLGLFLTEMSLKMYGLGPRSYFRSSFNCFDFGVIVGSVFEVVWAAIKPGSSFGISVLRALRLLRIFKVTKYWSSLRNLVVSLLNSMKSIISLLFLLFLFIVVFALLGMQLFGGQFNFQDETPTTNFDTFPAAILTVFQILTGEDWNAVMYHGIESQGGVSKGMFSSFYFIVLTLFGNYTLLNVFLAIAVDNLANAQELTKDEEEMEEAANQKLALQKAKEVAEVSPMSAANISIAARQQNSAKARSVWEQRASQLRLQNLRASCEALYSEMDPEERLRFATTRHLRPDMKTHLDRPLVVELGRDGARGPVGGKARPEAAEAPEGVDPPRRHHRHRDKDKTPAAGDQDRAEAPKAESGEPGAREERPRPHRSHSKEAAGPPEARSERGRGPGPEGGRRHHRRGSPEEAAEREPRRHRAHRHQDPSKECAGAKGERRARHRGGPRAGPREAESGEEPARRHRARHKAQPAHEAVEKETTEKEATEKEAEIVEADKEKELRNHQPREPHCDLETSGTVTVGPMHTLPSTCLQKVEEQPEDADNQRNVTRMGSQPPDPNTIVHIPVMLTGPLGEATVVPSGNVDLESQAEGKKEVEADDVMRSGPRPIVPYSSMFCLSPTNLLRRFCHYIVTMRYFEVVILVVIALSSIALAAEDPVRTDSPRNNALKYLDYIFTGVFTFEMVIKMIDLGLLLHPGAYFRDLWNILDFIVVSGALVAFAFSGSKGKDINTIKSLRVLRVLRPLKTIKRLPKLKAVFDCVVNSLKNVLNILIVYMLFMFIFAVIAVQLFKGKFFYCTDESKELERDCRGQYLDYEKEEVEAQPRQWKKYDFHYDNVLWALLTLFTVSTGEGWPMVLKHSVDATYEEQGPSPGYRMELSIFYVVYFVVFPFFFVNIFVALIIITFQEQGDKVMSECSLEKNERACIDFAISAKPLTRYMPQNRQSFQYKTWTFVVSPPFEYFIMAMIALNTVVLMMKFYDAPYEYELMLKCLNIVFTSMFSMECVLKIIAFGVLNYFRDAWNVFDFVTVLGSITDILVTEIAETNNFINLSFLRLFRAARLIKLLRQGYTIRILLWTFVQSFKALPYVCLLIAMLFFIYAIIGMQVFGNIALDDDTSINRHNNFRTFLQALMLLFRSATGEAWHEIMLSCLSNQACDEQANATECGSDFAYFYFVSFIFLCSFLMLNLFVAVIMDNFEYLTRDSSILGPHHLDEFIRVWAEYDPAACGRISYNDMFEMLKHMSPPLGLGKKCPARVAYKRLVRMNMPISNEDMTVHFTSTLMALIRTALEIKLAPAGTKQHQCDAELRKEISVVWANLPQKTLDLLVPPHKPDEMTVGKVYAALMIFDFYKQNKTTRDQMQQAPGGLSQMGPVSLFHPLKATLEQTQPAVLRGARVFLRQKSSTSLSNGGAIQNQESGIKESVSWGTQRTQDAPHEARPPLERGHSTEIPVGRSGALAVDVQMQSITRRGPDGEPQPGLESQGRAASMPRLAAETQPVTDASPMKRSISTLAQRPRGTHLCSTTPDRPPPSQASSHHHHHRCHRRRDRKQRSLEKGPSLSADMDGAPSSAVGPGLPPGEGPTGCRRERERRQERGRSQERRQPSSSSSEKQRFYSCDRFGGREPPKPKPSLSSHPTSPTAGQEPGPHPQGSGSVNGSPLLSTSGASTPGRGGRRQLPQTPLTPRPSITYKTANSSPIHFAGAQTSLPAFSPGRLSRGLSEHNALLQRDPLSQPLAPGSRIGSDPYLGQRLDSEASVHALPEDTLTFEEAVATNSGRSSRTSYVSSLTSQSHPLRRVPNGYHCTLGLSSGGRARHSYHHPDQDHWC
# Out of some 290,000 compounds screened, about 570 (0.2%) were called active. Inconclusive means that the source gave no clear call. Such entries were picked first, then a sample of the others. Cut-off read from the data, not from the text of the source: active = inhibition mostly above about 51% (no sharp cut-off); inconclusive = no clear call, values can overlap the other calls; inactive = mostly below about 53%.
# Target: Voltage-dependent N-type calcium channel subunit alpha-1B (Homo sapiens) (UniProt Q00975)
# Test: inhibitors of Mint1-CaV2.2 protein interaction, biochemical, HTRF (AID 2073)
# Details: at 20 µM, active compounds read high
row,SMILES,inhibition
1,CN(C)c1cc(N)c2c(n1)CCC2 (tested in a mixture with another compound),inconclusive: 74.3%
2,CCN(CC)C(=O)c1ccc(NC(=O)CCCSc2ccccc2)cc1,inactive: -3.4%
3,Cc1cc(Cc2c(O)[nH]c(=S)[nH]c2=O)ccc1OC(C)C,inconclusive: 57.4%
4,Cc1c(C=C2C(=O)NC(=O)NC2=O)c(=O)n(-c2ccccc2)n1C,inconclusive: 65.7%
5,CCCN(CCC)[C@@H]1CCc2cccc(O)c2C1,inconclusive: 83.6%
6,COc1cc2c(c(OC)c1)C(=O)OC(C)CCCC(=O)CCCCC2 (stereo not drawn),inactive: 7.1%
7,COc1cc(Br)c(CNCCc2ccc3c(c2)OCO3)cc1OC,inactive: -3.9%
8,Cc1c(C=C2C(=O)N(C)C(=S)N(C)C2=O)c2ccccc2n1CC(=O)NCC1CCCO1 (stereo not drawn),inactive: -5.7%
9,COc1ccc(OC)c(N2C(=O)/C(=C/c3ccco3)C(=O)NC2=S)c1,inconclusive: 85.2%
10,CC(=O)NN1C(=O)c2ccccc2NC1c1cccnc1 (stereo not drawn),inconclusive: 60.9%
11,CC(C)n1c(=O)c(C=Nc2ccc(Cl)cc2)c(O)n(Cc2ccco2)c1=O,inactive: 63.2%
12,COc1cccc(N2C(=O)NC(=O)/C(=C/c3ccc4c5c(cccc35)CC4)C2=O)c1,inconclusive: 72.1%
13,C[n+]1c2ccccc2nc2ccc(NCCO)cc21,inconclusive: 64.5%
14,CN1C[C@H](CO)C=C2c3cccc4[nH]cc(c34)C[C@H]21,inconclusive: 67%
15,CCOC(=O)[C@]1(C#N)[C@@H]2C=CC(C(N)=O)=CN2[C@@H](C(N)=O)[C@@H]1c1ccc(F)cc1,inconclusive: 50.2%
16,O=C(Cc1ccccc1)N1CCN(Cc2cccc(Cl)c2)CC1,inconclusive: 67.6%
17,O=[As](O)(O)c1ccc(N=Nc2ccc(O)cc2)cc1,inactive: 15.6%
18,CCc1ccc(N2C(=O)NC(=O)/C(=C/c3cccn3CCOc3ccc(C)cc3)C2=O)cc1,inactive: 17.5%
19,O=C(c1cccn2c(=O)c3ccc(Cl)cc3nc12)N1CCC2(CC1)OCCO2,inconclusive: 54.6%
20,COc1ccc2c3c([nH]c2c1)C(C)=NCC3,inconclusive: 57%

# Five neighbouring compounds out of the list so far, for reference:
row,SMILES,inhibition
15,CCOC(=O)[C@]1(C#N)[C@@H]2C=CC(C(N)=O)=CN2[C@@H](C(N)=O)[C@@H]1c1ccc(F)cc1,inconclusive: 50.2%
16,O=C(Cc1ccccc1)N1CCN(Cc2cccc(Cl)c2)CC1,inconclusive: 67.6%
17,O=[As](O)(O)c1ccc(N=Nc2ccc(O)cc2)cc1,inactive: 15.6%
18,CCc1ccc(N2C(=O)NC(=O)/C(=C/c3cccn3CCOc3ccc(C)cc3)C2=O)cc1,inactive: 17.5%
19,O=C(c1cccn2c(=O)c3ccc(Cl)cc3nc12)N1CCC2(CC1)OCCO2,inconclusive: 54.6%

# Remaining list, next part

row,SMILES,inhibition
1,CNC(=S)N(C)CCc1cc2c(c(OC)c1/C=C1/C(=O)NC(=O)N(C)C1=O)OCO2,inactive: 6.3%
2,Cc1oc(-c2ccccc2)nc1CN1C(=O)CN=C(c2ccccc2)c2ccccc21,inactive: -1.1%
3,CCCNC(=O)c1c(N)n(Cc2ccc3c(c2)OCO3)c2nc3ccccc3nc12,inconclusive: 62.5%
4,CCCC(=O)c1c(O)[nH]c(=O)[nH]c1=O,inconclusive: 55.2%
5,COc1ccc(N=Nc2c(O)[nH]c(=S)[nH]c2=O)cc1,inactive: -13.3%
6,CCCCCn1c(=O)c(C(=O)Nc2nc(CC(=O)OCC)cs2)c(O)c2ccccc21,inconclusive: 66.2%
7,CC(Cc1ccccc1)N1Cc2ccccc2C1 (stereo not drawn),inconclusive: 88.1%
8,CC(=O)N(C1=NCCCS1)c1ccc(Cl)cc1,inconclusive: 60.7%
9,COC(=O)C1C2c3ccccc3C(c3ccccc32)C1C(=O)OC (stereo not drawn),inconclusive: 74.1%
10,CCCCn1c(O)c(C(C)=NCCN2CCCCC2)c(=O)[nH]c1=O,inconclusive: 80.2%
11,COc1ccc(CC[n+]2cc(/N=C(\C)[O-])on2)cc1OC,inactive: 11.6%
12,CCCCCCn1c(O)c(C=NCCN2CCOCC2)c(=O)[nH]c1=O,inactive: -1.8%
13,Cc1cc(/C=C2\C(=O)NC(=O)N(C)C2=O)c(C)n1-c1ccc2c(c1)OCO2,inactive: 0.4%
14,CN1CC(C(=O)c2ccc(Cl)cc2)C(c2ccccc2)C1 (stereo not drawn),inconclusive: 54.2%
15,CC(C)(C)NS(=O)(=O)c1ccc(OCC(=O)N2CCN(Cc3ccccc3)CC2)cc1,inconclusive: 55.9%
16,CC(C)CC(NC(=O)C1CCCCC1)C(=O)N1CCC2(CC1)OCCO2 (stereo not drawn),inactive: -0.4%
17,CN1CCN(c2ccc(/C=C3\C(=O)NC(=S)N(c4cccc(Br)c4)C3=O)o2)CC1,inconclusive: 50.8%
18,CCc1ccc(/C=C(/C#N)C(N)=S)cc1,active: 84.5%
19,Clc1cccc(CNCCc2ccc3c(c2)OCO3)c1,inconclusive: 80.3%
20,CCN1C(=O)C(=C2C=C(C)N(Cc3ccco3)C(C)=C2)C(=O)N(CC)C1=S,inconclusive: 51.5%

row,SMILES,inhibition
1,CCOC(=O)C1CCN(/C=C2/C(=O)NC(=O)N(Cc3ccco3)C2=O)CC1,inconclusive: 67.6%
2,CCOc1ccc(-c2cc(C)[n+](CCO)c(-c3ccc(OCC)cc3)c2)cc1,inconclusive: 61.6%
3,O=c1c2ccccc2nc(/C=C/c2ccccc2O)n1-c1ccccc1O,inconclusive: 63.3%
4,CN(C)P1(N(C)C)=NC(C(F)(F)F)=NC(C(F)(F)F)=N1,inactive: 2.9%
5,O=C(CCC(=O)N1CCC2(CC1)OCCO2)Nc1nnc(C2CCCCC2)s1,inconclusive: 83.2%
6,O=C(O)CCn1cc(C=C2C(=O)NC(=O)NC2=O)c(-c2cc3ccccc3oc2=O)n1,inactive: 42.3%
7,CCC(=O)c1ccc(OC)c(OC)c1,inconclusive: 89.7%
8,COc1cccc(-c2nc3ccc(N4CCN(C)CC4)cc3[nH]2)c1,inconclusive: 64%
9,CCn1c(P(C)(=O)O)nc2cc(NC(=O)c3ccccc3F)ccc21,inconclusive: 54.2%
10,O=C1/C(=C\c2ccc([N+](=O)[O-])cc2)N2CCC1CC2,inactive: -2.4%
11,N/C(=N\[N+](=O)[O-])N1CCN(C(=O)OC2CCCC2)CC1,inconclusive: 88.1%
12,CCOC(=O)CN1C(=O)C2(C(C#N)=C(N)Oc3ccccc32)C(C(=O)OC)=C1C (stereo not drawn),inconclusive: 58.2%
13,Cc1ccc(S(=O)(=O)N2CC3CC(C2)c2cccc(=O)n2C3)cc1 (stereo not drawn),inconclusive: 57%
14,O=S(=O)(c1ccccc1)N1CCCCC1c1cccnc1 (stereo not drawn),inconclusive: 63.2%
15,Clc1ccccc1C1NCc2ccccc2-n2cccc21 (stereo not drawn),inconclusive: 72.3%
16,FC(F)(F)Oc1ccc(NC2=NCCCS2)cc1,inconclusive: 59.2%
17,O=C(Cc1ccc(Br)cc1)N1CCN(Cc2ccccc2)CC1,inactive: 9.2%
18,O=C(O)CCn1cc(C=C2C(=O)NC(=O)NC2=O)c(-c2ccc(Br)cc2)n1,inactive: 11.7%
